# Assay results reported in PubChem BioAssay AID504444 (National Center for Advancing Translational Sciences (NCATS), 2011).
# Hit rate of the full screen: of about 360,000 compounds, about 7,500 (2.1%) were called active. The inconclusive results got no clear call from the source; some entries with a clear call stand among them for comparison. Calls follow the shape of the dose curve; as a rule, active = well fitted inhibition curve with a large enough effect; inconclusive = small, poorly fitted or top-dose-only effect, or effect the other way; inactive = flat fitted curve, though single readings scatter. Potencies beside an inconclusive call are fits to weak or partial responses and may not hold up.
# Assay: Nrf2 qHTS screen for inhibitors; also: nearly all actives have a fitted effect of over 60% in size
# Conditions: A549 ARE-Fluc reporter, luciferase luminescence, 18-24 h; activity change, negative = inhibition: at 46 µM (top of the series)
# Summary of the method: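 A549 ARE_Fluc cells (5000/well, 5% FBS OPTI-MEM) pre-incubated 2 h, then treated with compounds 18-24 h at 37C/5% CO2 in concentration-response. CellTiter-Fluor viability read first; BugLite luciferase luminescence after 15 min at room temperature gives Nrf2 activity.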
# % is scaled to controls: 0 for no effect and ±100 for the full control effect; potency is read from the fitted curve at half-maximal effect.
SMILES,"activity change, negative = inhibition",Potency
CCCN(Cc1ccccc1)C(=S)Nc1ccc(OC(F)F)cc1,inactive: 14%,
O=C(Nc1ccncc1)C1CCN(S(=O)(=O)c2cccc(C(F)(F)F)c2)CC1,,active: 16.4 µM
COC(=O)c1sccc1S(=O)(=O)N1CCN(c2ccc(C(C)=O)cc2)CC1,,"inconclusive: 6.51 µM [falling, single point]"
CN1CCN(c2ccc(-c3ccc4ccccc4n3)cc2)CC1,,active: 10.3 µM
CC(C)(C)OC(=O)CC(=O)NNC(=O)c1nc2ccccc2[nH]1,inactive: -1.22%,
C[C@](N)(Cc1ccc(O)c(O)c1)C(=O)O,inactive: -6.79%,
Cc1ccc(C)c(N2CCN(C(=O)C3CCCN(S(=O)(=O)c4cccc5nonc45)C3)CC2)c1 (stereo not drawn),,"inconclusive: 23.1 µM [falling, single point]"
Cc1noc(C)c1S(=O)(=O)N(CC(=O)Nc1ccc2c(c1)OCCO2)c1ccc(C(C)C)cc1,,"inconclusive: 20.6 µM [falling, partial curve, poor fit]"
CCOCCc1nn2c(=O)cc(COC(=O)c3cccc(C)c3)nc2s1,inactive: 9.13%,
CCc1noc(C)c1C(=O)Nc1ccccc1C(C)(C)C,inactive: 4.93%,
Cc1cc(F)ccc1NC(=O)c1ccc(NS(=O)(=O)c2cc(C(C)(C)C)ccc2C)cc1,,"inconclusive: 20.6 µM [falling, partial curve, poor fit]"
CCOC(=O)c1c(NC(=O)CSc2cn(CCNC(=O)c3c(F)cccc3F)c3ccccc23)sc2c1CCCC2,inactive: -11.3%,
O=C(O)CC(Sc1n[nH]c(=S)s1)C(=O)O (stereo not drawn),inactive: 2.14%,
Cc1ccc2nc(NC(=O)c3ccc(OCC4CCCO4)cc3)sc2c1 (stereo not drawn),,"inconclusive: 29.1 µM [falling, single point]"
c1cnc(N2CCN(Cc3ccc4c(c3)OCO4)CC2)nc1,,inactive
O=C(NNC(=O)c1cccc2ccccc12)c1ccc(Br)cc1,,"inconclusive: 6.51 µM [activator, full curve]"
CCC(C)NC(=O)CCC(=O)NNc1nc2ccccc2c2nc(C)nn12 (stereo not drawn),,"inconclusive: 1.16 µM [activator, full curve, poor fit]"
Cc1ccc(C2=NS(=O)(=O)N(C)C(C(=O)NCc3cccs3)=C2)cc1,,"inconclusive: 32.6 µM [falling, partial curve, poor fit]"
CCOc1ccc(NS(=O)(=O)c2ccc(NS(=O)(=O)c3ccccc3)cc2)cc1,inactive: 1.66%,
COc1cc(NS(=O)(=O)c2ccc(NC(=O)c3ccc(OC)c(Br)c3)cc2)nc(OC)n1,,"inconclusive: 29.1 µM [falling, single point]"
CCOC(=O)C(=O)N=Nc1c(O)[nH]c2ccccc12,inactive: 7.51%,
C/C(=N/NC(=O)c1ccoc1C)c1ccc(NC(=O)c2ccncc2)cc1,,"inconclusive: 1.84 µM [activator, partial curve, poor fit]"
COc1cc(/C=C2/C(=O)NN(c3cccc(C)c3)C2=O)cc([N+](=O)[O-])c1O,inactive: 19.7%,

SMILES,"activity change, negative = inhibition",Potency
OCCN(CCO)CC(O)COc1ccc(C23CC4CC(CC(C4)C2)C3)cc1 (stereo not drawn),,"inconclusive: 14.6 µM [falling, partial curve]"
Cc1ccc(C(=O)O/N=C/c2c(C(F)(F)F)nn(C)c2Sc2ccc(Cl)cc2)cc1,,"inconclusive: 23.1 µM [falling, single point]"
COc1cc2c(C(=O)N3CCN(c4cc(Cl)ccc4C)CC3)cn(CC(C)C)c(=O)c2cc1OC,inactive: -24.9% [at 9.27 µM],
CN1CCc2c(sc(NC(=O)c3ccco3)c2C(N)=O)C1,inactive: 9.88%,
O=C(Nc1ccccc1F)C(Cc1ccccc1)N1Cc2ccccc2C1=O (stereo not drawn),inactive: 27%,
O=Cc1c(Cl)nc2ccccn12,inactive: 0.802%,
COc1ccc([N+](=O)[O-])cc1NC(=O)CSCc1ccc(Br)cc1,,"inconclusive: 20.6 µM [falling, partial curve, poor fit]"
CCCn1c(-c2ccc(F)cc2)cnc1SCC(=O)O,,"inconclusive: 2.06 µM [activator, partial curve, poor fit]"
COc1ccccc1N1CCN(C(=O)CSc2nnc3n2C(C)(C)Cc2ccccc2-3)CC1,,"inconclusive: 18.4 µM [falling, partial curve]"
CCCC(=O)NC(=S)Nc1ccc(S(=O)(=O)N2CCc3ccccc32)cc1,,active: 20.6 µM
COc1ccc(OC)c(C2c3[nH]c4ccccc4c3C[C@H]3C(=O)N(C4CC4)CC(=O)N23)c1 (stereo partly drawn),,"inconclusive: 32.6 µM [falling, single point]"
O=C(Nc1cccnc1Cl)c1cccs1,inactive: 24.9%,
Cc1cc(SCC(=O)Nc2nsc(-c3ccc(C(C)(C)C)cc3)n2)nc2ccccc12,,"inconclusive: 23.1 µM [falling, single point]"
CCC(C)(C)C1CCC2(CC1)NC(=O)N(CC(=O)NCCc1c[nH]c3ccccc13)C2=O (stereo not drawn),,"inconclusive: 29.1 µM [falling, single point]"
CC(=NNC(=S)Nc1cccc(C)c1)c1ccccn1,,"inconclusive: 5.17 µM [falling, full curve]"
Cc1c(C(=O)OCC2CCCO2)[nH]c2c1C(=O)CC(c1ccc(N(C)C)cc1)C2 (stereo not drawn),,"inconclusive: 25.9 µM [falling, partial curve, poor fit]"
O=C(c1ccc([N+](=O)[O-])cc1)N(Cc1ccccc1)Cc1ccccc1,,"inconclusive: 29.1 µM [falling, partial curve, poor fit]"
COC(=O)c1ccc(CNC(=O)CSC2=NCCS2)cc1,,"inconclusive: 4.61 µM [activator, full curve, poor fit]"
CC(=O)N1c2ccc(S(=O)(=O)N3CCCC(C(=O)N4CCCC(C)C4)C3)cc2CC1C (stereo not drawn),,"inconclusive: 18.4 µM [falling, single point]"
CCCNC(=O)COCc1cc(-c2ccc3c(c2)OCO3)on1,,"inconclusive: 6.51 µM [activator, full curve]"
COc1cccc(NC(=O)C2CCCN2S(=O)(=O)c2ccc3nc(-c4ccccc4)[nH]c3c2)c1 (stereo not drawn),,"inconclusive: 29.1 µM [falling, single point]"
Cc1nc2ccc(NC(=O)N3CCCCC3)cc2s1,,"inconclusive: 23.1 µM [activator, single point]"
O=C(NCC1CCCN1S(=O)(=O)c1cccs1)c1ccc(Cl)cc1 (stereo not drawn),,active: 23.1 µM

SMILES,"activity change, negative = inhibition",Potency
COc1ccc(-c2ccc(SCC(=O)Nc3nnc(C)s3)nn2)cc1,,"inconclusive: 29.1 µM [falling, single point]"
Cc1cc(C)c(-c2csc(Cc3nc(-c4cc5ccccc5oc4=O)cs3)n2)cc1C,,"inconclusive: 16.4 µM [falling, partial curve, poor fit]"
COc1ccc(CCNC(=O)C(=O)NCC2CCCN2S(=O)(=O)c2cccs2)cc1 (stereo not drawn),,"inconclusive: 11.6 µM [falling, partial curve]"
Cc1cc(C)c(-c2csc(NC(=O)CCCc3nc4ccccc4c(=O)[nH]3)n2)c(C)c1,,active: 9.2 µM
N=C1SCC(=O)N1c1ncc(Cc2ccccc2Cl)s1,,"inconclusive: 29.1 µM [falling, partial curve, poor fit]"
COc1ccc(-c2nnc(NC(=O)c3ccc4c(c3)OCCO4)o2)cc1,inactive: -0.114%,
OC[C@@H]1[C@@H](c2ccc(F)cc2)C(c2ccccc2)=NN1c1ccccc1,,"inconclusive: 13 µM [activator, partial curve]"
O=C(c1ccc2c(=O)n3c(nc2c1)CCCCC3)N1CCN(c2ccc(Cl)cc2)CC1,,"inconclusive: 16.4 µM [falling, single point]"
CCc1cccc(NC(=O)C(Cc2ccccc2)NS(=O)(=O)c2ccc3c(c2)c(=O)n(C)c(=O)n3C)c1 (stereo not drawn),inactive: -7.88%,
CCOC(=O)C(NCc1ccc2c(c1)OCO2)(NC(=O)CC)C(F)(F)F (stereo not drawn),inactive: 13.5%,
CC(Oc1ccc(F)cc1)C(=O)N(CCC1=CCCCC1)c1c(N)n(Cc2ccccc2)c(=O)[nH]c1=O (stereo not drawn),,"inconclusive: 20.6 µM [falling, single point]"
Cc1cc(C)c(S(=O)(=O)c2ccccc2C(=O)O)c(C)c1,,"inconclusive: 6.51 µM [falling, single point]"
O=C(COc1ccc(Cl)cc1Cl)NNC(=O)c1cccnc1,,"inconclusive: 8.2 µM [activator, partial curve, poor fit]"
O=c1oc2ccccc2c(O)c1Sc1c(O)c2ccccc2oc1=O,,"inconclusive: 29.1 µM [falling, single point]"
Cc1ccc(Cl)cc1NC(=S)N(CCCN1CCOCC1)Cc1ccco1,,"inconclusive: 20.6 µM [falling, partial curve]"
O=C(Nc1ccc2c(c1)CCC2)c1cccs1,,"inconclusive: 5.8 µM [activator, full curve]"
CC(=O)c1cc(-c2ccccc2)n(CC(=O)N2CCN(C3CCCC3)CC2)c1C,,"inconclusive: 0.731 µM [activator, full curve, poor fit]"
COc1cccc(C2=CC(c3ccccc3O)NC(C)(C)N2)c1 (stereo not drawn),inactive: 2.13%,
O=[N+]([O-])c1ccccc1N/N=C/c1cccc(O)c1O,,"inconclusive: 29.1 µM [activator, single point]"
Cc1ccc(S(=O)(=O)NCC(C)NS(=O)(=O)c2ccc(C)cc2)cc1 (stereo not drawn),,"inconclusive: 2.31 µM [activator, partial curve]"
O=C(CNC(=S)N(CCCN1CCOCC1)Cc1cccs1)NCc1ccccc1,,"inconclusive: 0.146 µM [falling, full curve, poor fit]"
Cc1ccc(-n2nc3c(N4CCC(C(=O)N(C)Cc5ccccc5)CC4)nnc(C)c3c2C)cc1,,"inconclusive: 23.1 µM [activator, single point]"

# Structures from the list above that have a nitro group on carbon (4):
SMILES,"activity change, negative = inhibition",Potency
COc1cc(/C=C2/C(=O)NN(c3cccc(C)c3)C2=O)cc([N+](=O)[O-])c1O,inactive: 19.7%,
COc1ccc([N+](=O)[O-])cc1NC(=O)CSCc1ccc(Br)cc1,,"inconclusive: 20.6 µM [falling, partial curve, poor fit]"
O=C(c1ccc([N+](=O)[O-])cc1)N(Cc1ccccc1)Cc1ccccc1,,"inconclusive: 29.1 µM [falling, partial curve, poor fit]"
O=[N+]([O-])c1ccccc1N/N=C/c1cccc(O)c1O,,"inconclusive: 29.1 µM [activator, single point]"
